Assay results taken from doi:10.1101/2023.12.15.571360.

Sequences of proteins named here, by UniProt entry; tags and fusion partners are left off.
UniProt P63104: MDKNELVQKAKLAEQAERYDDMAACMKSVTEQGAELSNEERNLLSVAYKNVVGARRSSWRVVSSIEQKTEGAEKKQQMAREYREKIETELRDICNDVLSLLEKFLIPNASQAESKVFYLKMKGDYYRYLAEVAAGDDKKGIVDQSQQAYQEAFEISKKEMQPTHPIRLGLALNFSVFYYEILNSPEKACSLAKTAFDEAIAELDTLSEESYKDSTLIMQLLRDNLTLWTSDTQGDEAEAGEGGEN

Each binder was assayed against GST-14-3-3ζ (UniProt P63104) (assay: affinity purification with mass spectrometry).

Binder | binding
Dclk1 (protein, UniProt Q9JLM8 1-756, phosphorylated; sites not shown (Supplementary Table 2)) MSFGRDMELEHFDERDKAQRYSRGSRVNGLPSPTHSAHCSFYRTRTLQTLSSEKKAKKVRFYRNGDRYFKGIVYAISPDRFRSFEALLADLTRTLSDNVNLPQGVRTIYTIDGLKKISSLDQLVEGESYVCGSIEPFKKLEYTKNVNPNWSVNVKTTSASRAVSSLATAKGGPSEVRENKDFIRPKLVTIIRSGVKPRKAVRILLNKKTAHSFEQVLTDITDAIKLDSGVVKRLYTLDGKQVMCLQDFFGDDDIFIACGPEKFRYQDDFLLDESECRVVKSTSYTKIASASRRGTTKSPGPSRRSKSPASTSSVNGTPGSQLSTPRSGKSPSPSPTSPGSLRKQRISQHGGSSTSLSSTKVCSSMDENDGPGEGDELGRRHSLQRGWRREESEEGFQIPATITERYKVGRTIGDGNFAVVKECIERSTAREYALKIIKKSKCRGKEHMIQNEVSILRRVKHPNIVLLIEEMDVPTELYLVMELVKGGDLFDAITSTSKYTERDASGMLYNLASAIKYLHSLNIVHRDIKPENLLVYEHQDGSKSLKLGDFGLATIVDGPLYTVCGTPTYVAPEIIAETGYGLKVDIWAAGVITYILLCGFPPFRGSGDDQEVLFDQILMGQVDFPSPYWDNVSDSAKELINMMLLVNVDQRFSAVQVLEHPWVNDDGLPENEHQLSVAGKIKKHFNTGPKPSSTAAGVSVIATTALDKERQVFRRRRNQDVRSRYKAQPAPPELNSESEDYSPSSSETVRSPNSPF | binds
Dlgap2 (protein, UniProt Q8BJ42 1-1059, phosphorylated; sites not shown (Table 1, Supplementary Tables 1 and 2)) MGTAQVLPGILQKHCCILPDRNTESQCTLCGEPEEEEGGDLAQPGLSFPGPAEEDIDQQYSWSPTQHFNEERYSPAPRNMKGLTGSRNQPQLCAGHTCGLSPPDDCEHPHDHMHHGSDVRQPYLLSPAESCPMDHHRCSPRSSVHSECMMMPVMLGDHVSSSTFPRMHYSSHYDTRDDCAMSHTSTKVNRIPANLLDQFEKQLPLHRDGFHTLQYQRASAATEQRNESPGRIRHLVHSVQKLFTKSHSLEGSSKSNINGTKSDSRVDDHHQSHLSKHSKRSKSKERKPESKHKSGMSSWWSSDDNLDSDSTYRTPSVAHRHHMDHIPHCYPEALQSPFGDLSLKTSKSNNDVKCSACEGLALTPDTRYMKRSSWSTLTVSQAKEAYRKSSLNLDKPLVHPEIKPSLRPCHYLQVPQDDWGAYPTGGKEEEIPCRRMRSGSYIKAMGDEESGESDSSPKTSPTVAIRPEPLLKPIIQRPLGDHQTQSYLQAATEVPVGHSLNPSINYNSPKFRSRNQSYMRAVSTLSQASCVSQMSEAEVNGQFESVCESVFSEVESQAMDALDLPGCFRTRSHSYLRAIQAGYSQDDECIPVMTSSNMTSTIRSTAAVSYTNYKKTPPPVPPRTTSKPLISVTAQSSTESTQDAYQDSRAQRMSPWPQDSRGGLYNSMDSLDSNKAMNLALETAAAQRHAADTQSSSTRSIDKAVLASKAEELLKSRCSSIGVQDSEFPDHQPYPRSDVETATDSDTESRGLREYHSVGVQVEDEKRHGRFKRSNSVTAAVQADLELEGFPGHVSMEDKGLQFGSSFQRHSEPSTPTQYGALRTVRTQGLFSYREDYRTQVDTSTLPPPDPWLEPSLDTVETGRMSPCRRDGSWFLKLLHTETKRMEGWCKEMEREAEENDLLEDILGKIRSAVGSAQLLMSQKFQQFYWLCQQNMDPSAMPRPTSQDLAGYWDMLQLSVEDVSMKFDELHQLKLNDWKIIESPERKEERKIPPPIPKKPPKGKFPITREKSLDLPDRQRQEARRRLMAAKRAASFRQNSATERADSIEIYIPEAQTRL | binds
Erc1 (protein, UniProt Q99MI1 1-1120, phosphorylated; sites not shown (Supplementary Table 2)) MYGSARSVGKVEPSSQSPGRSPRLPRSPRLGHRRTNSTGGSSGNSVGGGSGKTLSMENIQSLNAAYATSGPMYLSDHENVGAETPKSTMTLGRSGGRLPYGVRMTAMGSSPNIASSGVASDTIAFGEHHLPPVSMASTVPHSLRQARDNTIMDLQTQLKEVLRENDLLRKDVEVKESKLSSSMNSIKTFWSPELKKERALRKDEASKITIWKEQYRVVQEENQHMQMTIQALQDELRIQRDLNQLFQQDSSSRTGEPCVAELTEENFQRLHAEHERQAKELFLLRKTLEEMELRIETQKQTLNARDESIKKLLEMLQSKGLSAKATEEDHERTRRLAEAEMHVHHLESLLEQKEKENNMLREEMHRRFENAPDSAKTKALQTVIEMKDSKISSMERGLRDLEEEIQMLKSNGALSSEEREEEMKQMEVYRSHSKFMKNKVEQLKEELSSKDAQGEELKKRAAGLQSEIGQVKQELSRKDTELLALQTKLETLTNQFSDSKQHIEVLKESLTAKEQRAAILQTEVDALRLRLEEKETMLNKKTKQIQDMAEEKGTQAGEIHDLKDMLDVKERKVNVLQKKIENLQEQLRDKEKQMSSLKERVKSLQADTTNTDTALTTLEEALADKERTIERLKEQRDRDEREKQEEIDTYKKDLKDLREKVSLLQGDLSEKEASLLDIKEHASSLASSGLKKDSRLKTLEIALEQKKEECLKMESQLKKAHEATLEARASPEMSDRIQQLEREISRYKDESSKAQTEVDRLLEILKEVENEKNDKDKKIAELESLTSRQVKDQNKKVANLKHKEQVEKKKSAQMLEEARRREDSLSDSSQQLQDSLRKKDDRIEELEEALRESVQITAEREMVLAQEESARTNAEKQVEELLMAMEKVKQELESMKAKLSSTQQSLAEKETHLTNLRAERRKHLEEVLEMKQEALLAAISEKDANIALLELSSSKKKTQEEVAALKREKDRLVQQLKQQTQNRMKLMADNYEDDHFRSSRSNQTNHKPSPDQIIQPLLELDQNRSKLKLYIGHLTALCHDRDPLILRGLTPPASYNADGEQAAWENELQQMTQEQLQNELEKVEGDNAELQEFANTILQQIADHCPDILEQVVNALEESS | binds
Erc2 (protein, UniProt Q6PH08 1-957, phosphorylated; sites not shown (Supplementary Table 2)) MYGSARTISNLEGSPSRSPRLPRSPRLGHRRTSSGGGGGTGKTLSMENIQSLNAAYATSGPMYLSDHEGVASTTYPKGTMTLGRATNRAVYGGRVTAMGSSPNIASAGLSHTDVLSYTDQHGGLSGSSHHHHHQVPSMLRQVRDSTMLDLQAQLKELQRENDLLRKELDIKDSKLGSSMNSIKTFWSPELKKERVLRKEEAARMSVLKEQMRVSHEENQHLQLTIQALQDELRTQRDLNHLLQQESGNRGAEHFTIELTEENFRRLQAEHDRQAKELFLLRKTLEEMELRIETQKQTLNARDESIKKLLEMLQSKGLPSKSLEDDNERTRRMAEAESQVSHLEVILDQKEKENIHLREELHRRSQLQPEPAKTKALQTVIEMKDTKIASLERNIRDLEDEVQMLKANGVLNTEDREEEIKQIEVYKSHSKFMKTKIDQLKQELSKKESELLALQTKLETLSNQNSDCKQHIEVLKESLTAKEQRAAILQTEVDALRLRLEEKESFLNKKTKQLQDLTEEKGTLAGEIRDMKDMLEVKERKINVLQKKIENLQEQLRDKDKQLTNLKDRVKSLQTDSSNTDTALATLEEALSEKERIIERLKEQRERDDRERLEEIESFRKENKDLKEKVNALQAELTEKESSLIDLKEHASSLASAGLKRDSKLKSLEIAIEQKKEECNKLEAQLKKAHNIEDDSRMNPEFADRLKQLDKEASYYRDECGKAQAEVDRLLEILKEVENEKNDKDKKIAELESLTLRHMKDQNKKVANLKYNQQLEKKKNAQLLEEVRRREDSMVDNSQHLQIEELMNALEKTRQELDATKARLASTQQSLAEKEAHLANLRIERRKQLEEILEMKQEALLAAISEKDANIALLELSASKKKKTQEEVMALKREKDRLVHQLKQQTQNRMKLMADNYDEDHHHYHHHHHHHHHRSPGRSQHSNHRPSPDQDDEEGIWA | binds
Agfg1 (protein, UniProt Q8K2K6 1-561, phosphorylated; sites not shown (Supplementary Table 2)) MAASAKRKQEEKHLKMLRDMTGLPHNRKCFDCDQRGPTYVNMTVGSFVCTSCSGSLRGLNPPHRVKSISMTTFTQQEIEFLQKHGNEVCKQIWLGLFDDRSSAIPDFRDPQKVKEFLQEKYEKKRWYVPPEQAKVVASVHASISGSSASSTSSTPEVKPLKSLLGESAPALHLNKGTPSQSPVVGRSQGQQQEKKQFDLLSDLGSDIFAAPAPQSTATANFANFAHFNSHAAQNSANADFANFDAFGQSSGSSNFGGFPTASHSSFQPQTTGGSAGSVNANFAHFDNFPKSSSADFGTFSTSQSHQTASTVSKVSTNKAGLQTADKYAALANLDNIFSAGQGGDQGSGFGTTGKAPVGSVVSVPSHSSASSDKYAALAELDSVFSSAATSSNAYTPTSNASSSVFGTVPVGASAQTQPASSGPAPFGATPSTNPFVAATGPSAASSTNPFQTNARGATAATFGTASMSMPAGFGTPAQYSLPTSFSGSFQQPAFPAQAAFPQQTAFSQQPNGAGFATFGQTKPVVTPFGQVAAAGVSSNPFMTGAPTGQLPTGSSSTNPFL | binds
Bcr (protein, UniProt Q6PAJ1 1-1270, phosphorylated; sites not shown (Table 1, Supplementary Tables 1 and 2)) MVDSVGFAEAWRAQFPDSEPPRMELRSVGDIEQELERCKASIRRLEQEVNQERFRMIYLQTLLAKEKKSYDRQRWGFRRAAQPPDGAAEPRASAPRPPPAPADGADPAPVEESEARPDGEGSPSKGRSASARRPAAAASADRDDRGPPTSVAALRSNFEKIRKGPAQPGSADAEKPFYVNVEFHHERGLVKVNDKEVSDRISSLGSQAMQMERKKSQQSAGQGLGEAPRPHYRGRSSESSCGLDGDYEDAELNPRFLKDNLINANGGNRPPWPPLEYQPYQSIYVGGMMVEGEGKSPLLRSQSTSEQEKRLTWPRRSYSPRSFEDSGGGYTPDCSSNENLTSSEEDFSSGQSSRVSPSPTTYRMFRDKSRSPSQNSQQSFDSSSPPTPQCQKRHRQCQVVVSEATIVGVRKTGQIWPSDGDSTFQGEADSSFGTPPGYGCAADQAEEQRRHQDGLPYIDDSPSSSPHLSSKGRGSLASGALDPTKVSELDLEKGLEMRKWVLSGILASEETYLSHLEALLLPMKPLKAAATTSQPVLTSQQIETIFFKVPELYEIHKEFYDGLFPRVQQWSHQQRVGDLFQKLASQLGVYRAFVDNYGVAMETAEKCCQANAQFAEISENLRARSNKDVKDSTTKNSLETLLYKPVDRVTRSTLVLHDLLKHTPSSHPDHSLLQDALRISQNFLSSINEEITPRRQSMTVKKGEHRQLLKDSFMVELVEGARKLRHIFLFTDLLLCTKLKKQSGGKTQQYDCKWYIPLTDLSFQMVDELEALPNIPLVPDEELDALKIKISQIKSDIQREKRANKGSKVMERLRKKLSEQESLLLLMSPSMAFRVHSRNGKSYTFLISSDYERAEWRESIREQQKKCFKSFSLTSVELQMLTNSCVKLQTVHHIPLTINKEDDESPGLYGFLHVIVHSATGFKQSSNLYCTLEVDSFGYFVNKAKTRVYRDTTEPNWNEEFEIELEGSQTLRILCYEKCYNKMKMTKEDGESADKLMGKGQVQLDPQTLQDRDWQRTVIDMNGIEVKLSVKFTSREFSLKRMPSRKQTGVFGVKIAVVTKRERSKVPYIVRQCVEEIERRGMEEVGIYRVSGVATDIQALKAAFDVNNKDVSVMMSEMDVNAIAGTLKLYFRELPEPLFTDEFYPNFAEGIALSDPVAKESCMLNLLLSLPEANLLTFLFLLDHLKRVAEKETVNKMSLHNLATVFGPTLLRPSEKESKLPANPSQPITMTDSWSLEVMSQVQVLLYFLQLEAIPAPDSKRQSILFSTEV | binds

These are yes or no findings as the source states them, for the method shown. Binding seen in cells or lysates may run through a third protein. A yes stands for co-enrichment or nearness to the bait. Other partners may have been found.
